Publication PMC8170790
No constants are given. Whether binding was seen depends on the method and setting. For some assays here: In cells and extracts the contact can be indirect. Some results given as binding are weak or reduced against the parent protein; the word gives no strength. For some assays here: Tags and fused reporters may be left off the sequences shown.

By UniProt entry, the sequences of proteins in these tests, tags left out.
UniProt P22736: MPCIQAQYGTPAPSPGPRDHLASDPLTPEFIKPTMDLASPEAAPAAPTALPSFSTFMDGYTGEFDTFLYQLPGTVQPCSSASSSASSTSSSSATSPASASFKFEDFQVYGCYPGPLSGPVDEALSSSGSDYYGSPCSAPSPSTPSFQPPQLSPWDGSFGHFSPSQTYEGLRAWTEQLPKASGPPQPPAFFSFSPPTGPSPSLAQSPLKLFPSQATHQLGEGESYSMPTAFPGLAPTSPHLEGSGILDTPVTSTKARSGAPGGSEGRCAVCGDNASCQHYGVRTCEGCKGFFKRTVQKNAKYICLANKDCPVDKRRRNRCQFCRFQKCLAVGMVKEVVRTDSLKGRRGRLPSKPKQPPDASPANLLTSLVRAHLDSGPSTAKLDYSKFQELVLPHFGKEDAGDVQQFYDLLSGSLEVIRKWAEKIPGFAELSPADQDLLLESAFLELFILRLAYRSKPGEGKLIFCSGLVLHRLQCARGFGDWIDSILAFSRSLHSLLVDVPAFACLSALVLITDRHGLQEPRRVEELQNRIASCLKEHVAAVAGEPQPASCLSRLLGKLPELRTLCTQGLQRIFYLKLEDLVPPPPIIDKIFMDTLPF
UniProt Q99942: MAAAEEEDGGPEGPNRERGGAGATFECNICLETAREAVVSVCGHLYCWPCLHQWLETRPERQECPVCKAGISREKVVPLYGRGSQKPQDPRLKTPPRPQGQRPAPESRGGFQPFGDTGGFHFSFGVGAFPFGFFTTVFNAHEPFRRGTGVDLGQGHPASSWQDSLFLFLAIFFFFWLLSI

B1: USP-19 (protein, UniProt O94966 1-1318)
chain: MSGGASATGPRRGPPGLEDTTSKKKQKDRANQESKDGDPRKETGSRYVAQAGLEPLASGDPSASASHAAGITGSRHRTRLFFPSSSGSASTPQEEQTKEGACEDPHDLLATPTPELLLDWRQSAEEVIVKLRVGVGPLQLEDVDAAFTDTDCVVRFAGGQQWGGVFYAEIKSSCAKVQTRKGSLLHLTLPKKVPMLTWPSLLVEADEQLCIPPLNSQTCLLGSEENLAPLAGEKAVPPGNDPVSPAMVRSRNPGKDDCAKEEMAVAADAATLVDEPESMVNLAFVKNDSYEKGPDSVVVHVYVKEICRDTSRVLFREQDFTLIFQTRDGNFLRLHPGCGPHTTFRWQVKLRNLIEPEQCTFCFTASRIDICLRKRQSQRWGGLEAPAARVGGAKVAVPTGPTPLDSTPPGGAPHPLTGQEEARAVEKDKSKARSEDTGLDSVATRTPMEHVTPKPETHLASPKPTCMVPPMPHSPVSGDSVEEEEEEEKKVCLPGFTGLVNLGNTCFMNSVIQSLSNTRELRDFFHDRSFEAEINYNNPLGTGGRLAIGFAVLLRALWKGTHHAFQPSKLKAIVASKASQFTGYAQHDAQEFMAFLLDGLHEDLNRIQNKPYTETVDSDGRPDEVVAEEAWQRHKMRNDSFIVDLFQGQYKSKLVCPVCAKVSITFDPFLYLPVPLPQKQKVLPVFYFAREPHSKPIKFLVSVSKENSTASEVLDSLSQSVHVKPENLRLAEVIKNRFHRVFLPSHSLDTVSPSDTLLCFELLSSELAKERVVVLEVQQRPQVPSVPISKCAACQRKQQSEDEKLKRCTRCYRVGYCNQLCQKTHWPDHKGLCRPENIGYPFLVSVPASRLTYARLAQLLEGYARYSVSVFQPPFQPGRMALESQSPGCTTLLSTGSLEAGDSERDPIQPPELQLVTPMAEGDTGLPRVWAAPDRGPVPSTSGISSEMLASGPIEVGSLPAGERVSRPEAAVPGYQHPSEAMNAHTPQFFIYKIDSSNREQRLEDKGDTPLELGDDCSLALVWRNNERLQEFVLVASKELECAEDPGSAGEAARAGHFTLDQCLNLFTRPEVLAPEEAWYCPQCKQHREASKQLLLWRLPNVLIVQLKRFSFRSFIWRDKINDLVEFPVRNLDLSKFCIGQKEEQLPSYDLYAVINHYGGMIGGHYTACARLPNDRSSQRSDVGWRLFDDSTVTTVDESQVVTRYAYVLFYRRRNSPVERPPRAGHSEHHPDLGPAAEAAASQASRIWQELEAEEEPVPEGSGPLGPWGPQDWVGPLPRGPTTPDEGCLRYFVLGTVAALVALVLNVFYPLVSQSRWR
B2: TM4 (UBAC2), in Hela cells (protein, UniProt Q8NBM4 36-344)
chain: HCQKLFVYDLHAVKNDFQIWRLICGRIICLDLKDTFCSSLLIYNFRIFERRYGSRKFASFLLGSWVLSALFDFLLIEAMQYFFGITAASNLPSGFLAPVFALFVPFYCSIPRVQVAQILGPLSITNKTLIYILGLQLFTSGSYIWIVAISGLMSGLCYDSKMFQVHQVLCIPSWMAKFFSWTLEPIFSSSEPTSEARIGMGATLDIQRQQRMELLDRQLMFSQFAQGRRQRQQQGGMINWNRLFPPLRQRQNVNYQGGRQSEPAAPPLEVSEEQVARLMEMGFSRGDALEALRASNNDLNVATNFLLQH
B3: EGFP-C2-TM4 (protein, UniProt Q8NBM4 36-344)
chain: HCQKLFVYDLHAVKNDFQIWRLICGRIICLDLKDTFCSSLLIYNFRIFERRYGSRKFASFLLGSWVLSALFDFLLIEAMQYFFGITAASNLPSGFLAPVFALFVPFYCSIPRVQVAQILGPLSITNKTLIYILGLQLFTSGSYIWIVAISGLMSGLCYDSKMFQVHQVLCIPSWMAKFFSWTLEPIFSSSEPTSEARIGMGATLDIQRQQRMELLDRQLMFSQFAQGRRQRQQQGGMINWNRLFPPLRQRQNVNYQGGRQSEPAAPPLEVSEEQVARLMEMGFSRGDALEALRASNNDLNVATNFLLQH
B4: Flag-TM4 (protein, UniProt Q8NBM4 36-344)
chain: HCQKLFVYDLHAVKNDFQIWRLICGRIICLDLKDTFCSSLLIYNFRIFERRYGSRKFASFLLGSWVLSALFDFLLIEAMQYFFGITAASNLPSGFLAPVFALFVPFYCSIPRVQVAQILGPLSITNKTLIYILGLQLFTSGSYIWIVAISGLMSGLCYDSKMFQVHQVLCIPSWMAKFFSWTLEPIFSSSEPTSEARIGMGATLDIQRQQRMELLDRQLMFSQFAQGRRQRQQQGGMINWNRLFPPLRQRQNVNYQGGRQSEPAAPPLEVSEEQVARLMEMGFSRGDALEALRASNNDLNVATNFLLQH

Tests used:
[1] = biological target: T1, TM4 (UBAC2) (UniProt Q8NBM4); experiment: two-hybrid; yeast two-hybrid screening for TM4-interacting proteins; library and vectors not told
T1 sequence: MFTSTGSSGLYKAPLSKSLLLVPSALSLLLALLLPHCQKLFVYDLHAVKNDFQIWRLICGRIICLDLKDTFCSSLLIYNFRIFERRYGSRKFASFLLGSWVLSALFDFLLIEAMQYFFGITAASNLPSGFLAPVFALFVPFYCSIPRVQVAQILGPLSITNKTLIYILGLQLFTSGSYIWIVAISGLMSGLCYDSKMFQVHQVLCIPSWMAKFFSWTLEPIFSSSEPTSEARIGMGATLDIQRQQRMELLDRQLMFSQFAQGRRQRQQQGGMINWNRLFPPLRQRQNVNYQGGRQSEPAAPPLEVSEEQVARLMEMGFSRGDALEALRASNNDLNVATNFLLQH

[2] = biological target: Nur77 (overexpressed in Hela cells) (UniProt P22736); experiment: co-IP; Hela cells transfected with the Nur77 plasmid, harvested 48 h later, IP lysis buffer, Nur77 antibodies, Protein A/G beads; western blot for TM4
[3] = biological target: recombinant Nur77 protein obtained from prokaryotic expression (UniProt P22736); experiment: pull-down; lysates of eukaryotic cells overexpressing EGFP-C2-TM4 or Flag-TM4 (48 h) incubated with recombinant Nur77 from prokaryotic expression; eluted; blot with GFP and flag antibodies; only the target purified

Molecule | binding [1] | binding [3] | further results
RNF-5 (from UniProt Q99942 1-180) | binds |  | 
B1 | binds |  | 
B2 |  |  | binding [2]: binds
B3 |  | binds | 
B4 |  | binds | 
